Measured values published in PubChem BioAssay AID504847 (National Center for Advancing Translational Sciences (NCATS), 2011).
Among all 400,000 compounds or so, about 3,700 (0.93%) were called active. This list was built around the results that the source calls inconclusive (neither active nor inactive); the mix of calls is not that of the screen. Calls follow the shape of the dose curve; as a rule, active = well fitted inhibition curve with a large enough effect; inconclusive = small, poorly fitted or top-dose-only effect, or another doubt; inactive = no such curve, though single readings can be large or run the other way. A potency beside an inconclusive call is a rough fit, not a confirmed value.

The chains behind the UniProt entries cited, without tags or fusion partners. Where a name states a change or a piece, a line headed by the entry shows the natural chain unless it says otherwise.
UniProt P11473: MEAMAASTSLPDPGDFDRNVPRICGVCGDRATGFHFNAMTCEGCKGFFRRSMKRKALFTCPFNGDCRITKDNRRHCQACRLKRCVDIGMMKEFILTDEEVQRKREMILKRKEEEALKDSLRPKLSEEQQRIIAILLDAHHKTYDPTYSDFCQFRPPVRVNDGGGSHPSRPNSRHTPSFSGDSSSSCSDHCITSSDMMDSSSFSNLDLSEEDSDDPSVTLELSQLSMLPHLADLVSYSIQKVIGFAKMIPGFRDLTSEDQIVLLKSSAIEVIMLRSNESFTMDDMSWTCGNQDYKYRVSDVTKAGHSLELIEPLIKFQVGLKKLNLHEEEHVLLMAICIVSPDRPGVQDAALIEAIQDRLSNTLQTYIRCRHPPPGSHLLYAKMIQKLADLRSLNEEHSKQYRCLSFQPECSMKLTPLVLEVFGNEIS

Biological target: Vitamin D3 receptor (Homo sapiens) (UniProt P11473)
Test: Inhibitors of the vitamin D receptor (VDR): qHTS
Details: VDR-SRC2-3 peptide fluorescence polarization, 2 h; max response, negative = inhibition: hits give low values
In short: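 Fluorescence polarization assay measuring small-molecule disruption of VDR binding to the coregulator peptide SRC2-3. Compounds were pin-transferred (23 nl) into the reagent mix and incubated 2 h at room temperature before reading.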
% is scaled to controls: 0 for no effect and ±100 for the full control effect; potency is read from the fitted curve at half-maximal effect.

| Compound | Potency | max response, negative = inhibition |
| --- | --- | --- |
| Cc1snc(SCC(=O)c2ccc([N+](=O)[O-])cc2)c1C#N | inconclusive: 39.8 µM [inhibitor, single point] |  |
| O=C(Nc1nonc1NC(=O)c1cccs1)c1cccs1 | inconclusive: 79.4 µM [inhibitor, partial curve, poor fit] |  |
| Cc1ccc(S(=O)(=O)N(C)C(C)CCc2ccco2)cc1 (stereo not drawn) | inconclusive: 44.7 µM [inhibitor, partial curve, poor fit] |  |
| Cc1c(CCCl)c(Cl)n2c(nc3ccccc32)c1C#N | inconclusive: 14.1 µM [inhibitor, partial curve, poor fit] |  |
| COc1ccc(N2C(=S)NC3CS(=O)(=O)CC32)cc1 (stereo not drawn) |  | inactive: 2.05% |
| CCC(CC)C(=O)OCC(=O)NC12CC3CC(CC(C3)C1)C2 | inconclusive: 89.1 µM [inhibitor, single point] |  |
| CN(C)S(=O)(=O)n1cc(/C=C(\NC(=O)c2ccccc2F)C(=O)N2CCOCC2)c2ccccc21 | inconclusive: 14.1 µM [inhibitor, partial curve] |  |
| CC(C)Cn1c(N)c(C(=O)COC(=O)c2ccc(O)cc2O)c(=O)n(C)c1=O | inconclusive: 100 µM [inhibitor, single point] |  |
| CC(=O)c1ccc(N2CCN(S(=O)(=O)c3ccc4c(c3)NC(=O)CC(=O)N4)CC2)cc1 | inconclusive: 31.6 µM [inhibitor, partial curve, poor fit] |  |
| O=C1C=C(NCc2ccc(Cl)cc2)CC(c2ccco2)C1 (stereo not drawn) |  | inactive: 2.22% |
| Cc1ccc(C(=O)CSC2=NC(N)=C(C#N)C3(CCCCC3)C2C(N)=O)cc1 (stereo not drawn) | inconclusive: 79.4 µM [inhibitor, partial curve, poor fit] |  |
| Cc1cccn2c(=O)c(/C=C(\C#N)c3nc4ccccc4s3)c(Oc3ccc(Br)cc3)nc12 | active: 79.4 µM |  |
| CCOC(=O)C1CCN(C(=O)c2cc3c(=O)n4ccccc4nc3n2C)CC1 |  | inactive: 12.7% |
| CC(=O)Nc1ccc(NC(=O)CCn2nnc3ccccc32)cc1 | inconclusive: 14.1 µM [inhibitor, partial curve] |  |
| COc1ccc(C[C@H]2CN3C(=NC[C@@H]3C(C)C)N2CCNC(=O)c2ccc(C)c(Br)c2)cc1 |  | inactive: -16.9% |
| O=C(Nc1ccccc1N1CCCC1)c1cccnc1 |  | inactive: 13.1% |
| O=C(CC1Oc2ccc(Cl)cc2NC1=O)NC1CCCCCC1 (stereo not drawn) |  | inactive: -4.98% |
| CCn1cc(C(=O)O)c(=O)c2cc(S(=O)(=O)N(C)C)ccc21 |  | inactive: -8.54% |
| COCCOc1ccc(C(F)(F)F)cc1Nc1nc2ccccc2o1 | inconclusive: 39.8 µM [inhibitor, partial curve, poor fit] |  |
| Cc1ccc(-n2c3nc(=O)[nH]c(=O)c-3cc3cc([N+](=O)[O-])ccc32)cc1C | inconclusive: 79.4 µM [inhibitor, partial curve] |  |
| CC(C)CNC(=O)c1ccc(C2SCC(=O)N2Cc2ccccc2)cc1 (stereo not drawn) | active: 79.4 µM |  |
| N#CC1(NC(=O)CN2CCN(S(=O)(=O)c3ccccc3F)CC2)CCCC1 |  | inactive: -11% |

Among those listed so far, 3 have two or more sulfur atoms.

| Compound | Potency | max response, negative = inhibition |
| --- | --- | --- |
| Cc1snc(SCC(=O)c2ccc([N+](=O)[O-])cc2)c1C#N | inconclusive: 39.8 µM [inhibitor, single point] |  |
| O=C(Nc1nonc1NC(=O)c1cccs1)c1cccs1 | inconclusive: 79.4 µM [inhibitor, partial curve, poor fit] |  |
| COc1ccc(N2C(=S)NC3CS(=O)(=O)CC32)cc1 (stereo not drawn) |  | inactive: 2.05% |

Next part

| Compound | Potency | max response, negative = inhibition |
| --- | --- | --- |
| Nn1cnnc1N/N=C/c1cccc(Cl)c1Cl | inconclusive: 50.1 µM [inhibitor, partial curve, poor fit] |  |
| Cc1ccc(C)c2[nH]c(=O)c(CCNC(=O)c3ccc(Br)o3)cc12 |  | inactive: 2.15% |
| Cc1ccccc1/C=C/c1nc2ccccc2c(=O)n1CCc1ccccc1 | inconclusive: 70.8 µM [inhibitor, partial curve] |  |
| Cc1cc(OCc2cc(C(=O)N(C)CC3CCOCC3)no2)cc(C)c1Cl | inconclusive: 35.5 µM [inhibitor, partial curve, poor fit] |  |
| O=C(Nc1ccc(F)cc1F)c1cccc2c1C(=O)N(C1CCCCC1)C2 |  | inactive: -17.8% |
| C=CCOC(=O)NC(c1ccc(F)c(F)c1)C(C(=O)CCl)C(=O)OC (stereo not drawn) | active: 44.7 µM |  |
| COC(=O)c1ccc(COc2ccccc2/C=C(\C#N)C(=O)Nc2c(C)cccc2C)cc1 | inconclusive: 79.4 µM [inhibitor, single point] |  |
| CC(=O)Nc1ccc(C=CC=Cc2cccc([N+](=O)[O-])c2)cc1 | inconclusive: 56.2 µM [inhibitor, partial curve, poor fit] |  |
| NC(N)=NC(N)=Nc1ccc(SC(F)(F)F)cc1 | inconclusive: 89.1 µM [inhibitor, partial curve, poor fit] |  |
| COc1ccc(/C=C2\COc3ccccc3C2=O)cc1OC | inconclusive: 17.8 µM [inhibitor, full curve, poor fit] |  |
| COc1cc(OC)cc(C(=O)NCC(=O)OCc2csc(-c3ccccc3)n2)c1 | inconclusive: 100 µM [inhibitor, single point] |  |
| N#CSCC(=O)c1cccc2ccccc12 | inconclusive: 44.7 µM [inhibitor, partial curve, poor fit] |  |
| CCCCN(CC)Cc1c(O)ccc2c(-c3ccccc3)cc(=O)oc12 |  | inactive: -12.6% |
| C=CCNC(=S)/N=c1/ccccn1CCC | inconclusive: 79.4 µM [inhibitor, partial curve, poor fit] |  |
| CCOc1ccccc1C(=O)Oc1c(S(=O)(=O)c2ccc(C)cc2)c(C)nn1-c1ccccc1 |  | inactive: -15.9% |
| COc1cccc(-c2n[nH]c(=S)n2Cc2ccco2)c1 | inconclusive: 50.1 µM [inhibitor, partial curve, poor fit] |  |
| COc1cc(OC)cc(C(=O)NCC(=O)N2CC=C(c3ccccc3)CC2)c1 |  | inactive: -10.9% |
| Cc1cc(CNC(=O)c2ccc(C)c([N+](=O)[O-])c2)c2ccccc2n1 | inconclusive: 89.1 µM [inhibitor, single point] |  |
| COc1ccc(N2CCN(CCNC(=O)Nc3ccc(C)c(Cl)c3)CC2)cc1 |  | inactive: -9.63% |
| Cc1ccc(N2CC(C(=O)NCCS(=O)(=O)N3CCN(c4ccccc4F)CC3)CC2=O)cc1 (stereo not drawn) | inconclusive: 31.6 µM [inhibitor, partial curve, poor fit] |  |
| Nc1nnc(SCC(=O)OCC(=O)Nc2ccc(Br)cc2F)s1 | inconclusive: 89.1 µM [inhibitor, partial curve, poor fit] |  |
